In PubChem BioAssay AID328 (DTP/NCI, 2004):
The list does not hold the whole screen: its compounds were picked by chemical class. Other doses and runs of a compound may be missing. T/C: endpoint of the treated group in % of that of the vehicle group. For survival time, this PubChem deposit counts one and a half times the control or more as active, and values a quarter to a half above the control carry no call in these data; other NCI protocols may use other cut-offs. Some T/C values are marked as having no survivor count here; that says nothing about deaths at the dose. Schedules are NCI's codes, read here as Q, the interval in days (D) or hours (H), X, the number of doses.

Test system: BDF1 mice, P388 leukemia ip, median survival T/C
Test: NCI In Vivo Anticancer Drug Screen. Data for tumor model P388 Leukemia (intraperitoneal) in B6D2F1 (BDF1) mice
Settings: T/C endpoint: median survival time, higher T/C = longer survival
Procedure, shortened: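 Each value expresses how treatment altered survival: treated-mouse outcome over vehicle-mouse outcome, both groups bearing the transplanted tumour.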

[1] = dose: 4.12 mg/kg/injection, schedule: Q01DX009 (ip), vehicle: saline

Compound | T/C (dose: 0.19 mg/kg/injection, schedule: Q04DX003 (ip), vehicle: saline) | T/C (dose: 0.39 mg/kg/injection, schedule: Q04DX003 (ip), vehicle: saline) | T/C (dose: 0.51 mg/kg/injection, schedule: Q01DX009 (ip), vehicle: saline) | T/C (dose: 0.78 mg/kg/injection, schedule: Q04DX003 (ip), vehicle: saline) | T/C (dose: 1.03 mg/kg/injection, schedule: Q01DX009 (ip), vehicle: saline) | T/C (dose: 1.56 mg/kg/injection, schedule: Q04DX003 (ip), vehicle: saline) | T/C (dose: 2.06 mg/kg/injection, schedule: Q01DX009 (ip), vehicle: saline) | T/C [1] | T/C (dose: 6.25 mg/kg/injection, schedule: Q01DX009 (ip), vehicle: saline) | T/C (dose: 2.0 mg/kg/injection, schedule: Q01DX009 (ip), vehicle: saline) | T/C (dose: 8.25 mg/kg/injection, schedule: Q01DX009 (ip), vehicle: saline) | T/C (dose: 16.5 mg/kg/injection, schedule: Q01DX009 (ip), vehicle: saline) | T/C (dose: 25.0 mg/kg/injection, schedule: Q01DX009 (ip), vehicle: saline) | T/C (dose: 37.5 mg/kg/injection, schedule: Q01DX009 (ip), vehicle: saline) | T/C (dose: 50.0 mg/kg/injection, schedule: Q01DX009 (ip), vehicle: saline with Tween-80) | T/C (dose: 100.0 mg/kg/injection, schedule: Q01DX009 (ip), vehicle: saline with Tween-80) | T/C (dose: 200.0 mg/kg/injection, schedule: Q01DX009 (ip), vehicle: saline with Tween-80)
FCCNCCCl | 100 % of control [survivor count not shown] | 100 % of control [survivor count not shown] | 100 % of control [survivor count not shown] | 95 % of control [survivor count not shown] | 104 % of control [survivor count not shown] | 118 % of control [survivor count not shown] | 100 % of control [survivor count not shown] | 115 % of control [survivor count not shown] | 135 % of control [survivor count not shown] |  |  |  |  |  |  |  | 
ClCCNCCCNCCCl |  |  |  |  |  |  |  | 108 % of control [survivor count not shown] |  | 91 % of control [survivor count not shown] | 133 % of control [survivor count not shown] | 181 % of control [survivor count not shown] | 236 % of control [survivor count not shown] | 150 % of control [survivor count not shown] |  |  | 
C1=Nc2ccccc2Oc2ccccc21 |  |  |  |  |  |  |  |  |  |  |  |  |  |  | 94 % of control [survivor count not shown] | 88 % of control [survivor count not shown] | 104 % of control [survivor count not shown]
